These are yes or no findings as the source states them, for the method shown.
Key:
[1] = biological target: Homo sapiens Kif15 motor domain and neck-linker region (Kif15 19-375) (human) (UniProt Q9NS87); assay: SEC; analytical gel filtration, Superose 12 10/300 GL, 0.5 ml/min, 50 mM PIPES pH 6.8, 250 mM NaCl, 2 mM MgCl2, 1 mM DTT, calibrated with proteins of known molecular mass; both purified
[2] = biological target: Homo sapiens Kif15 motor domain with cover strand and neck linker (Kif15 1-375) (human) (UniProt Q9NS87); assay: as above

Row | binding [1] | binding [2] | Binder
1 | no binding |  | Homo sapiens Kif15 motor domain and neck-linker region (Kif15 19-375) (domain or fragment, UniProt Q9NS87 19-375) QPSNEGDAIKVFVRIRPPAERSGSADGEQNLCLSVLSSTSLRLHSNPEPKTFTFDHVADVDTTQESVFATVAKSIVESCMSGYNGTIFAYGQTGSGKTFTMMGPSESDNFSHNLRGVIPRSFEYLFSLIDREKEKAGAGKSFLCKCSFIEIYNEQIYDLLDSASAGLYLREHIKKGVFVVGAVEQVVTSAAEAYQVLSGGWRNRRVASTSMNRESSRSHAVFTITIESMEKSNEIVNIRTSLLNLVDLAGSERQKDTHAEGMRLKEAGNINRSLSCLGQVITALVDVGNGKQRHVCYRDSKLTFLLRDSLGGNAKTAIIANVHPGSRCFGETLSTLNFAQRAKLIKNKAVVNEDTQG
2 |  | no binding | Homo sapiens Kif15 motor domain with cover strand and neck linker (Kif15 1-375) (domain or fragment, UniProt Q9NS87 1-375) MAPGCKTELRSVTNGQSNQPSNEGDAIKVFVRIRPPAERSGSADGEQNLCLSVLSSTSLRLHSNPEPKTFTFDHVADVDTTQESVFATVAKSIVESCMSGYNGTIFAYGQTGSGKTFTMMGPSESDNFSHNLRGVIPRSFEYLFSLIDREKEKAGAGKSFLCKCSFIEIYNEQIYDLLDSASAGLYLREHIKKGVFVVGAVEQVVTSAAEAYQVLSGGWRNRRVASTSMNRESSRSHAVFTITIESMEKSNEIVNIRTSLLNLVDLAGSERQKDTHAEGMRLKEAGNINRSLSCLGQVITALVDVGNGKQRHVCYRDSKLTFLLRDSLGGNAKTAIIANVHPGSRCFGETLSTLNFAQRAKLIKNKAVVNEDTQG

From PMC3919264
